# Reference: PubChem BioAssay AID1645870 (National Center for Advancing Translational Sciences (NCATS), 2021)
# Chains of the proteins cited; added tags and fusions are not shown.
# UniProt Q9BV86, whole entry: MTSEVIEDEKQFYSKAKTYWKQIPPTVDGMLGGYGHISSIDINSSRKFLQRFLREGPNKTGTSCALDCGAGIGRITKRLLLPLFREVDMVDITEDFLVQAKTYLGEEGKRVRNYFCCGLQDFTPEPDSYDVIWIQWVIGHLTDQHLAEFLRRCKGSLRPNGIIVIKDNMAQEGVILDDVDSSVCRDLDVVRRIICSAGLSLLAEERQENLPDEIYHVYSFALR
# About 1,500 (2.5%) of roughly 59,000 compounds were called active. Only results without a clear call are listed here; the source files them as inconclusive. Calls follow the shape of the dose curve; as a rule, active = well fitted inhibition curve with a large enough effect; inconclusive = small, poorly fitted or top-dose-only effect; inactive = flat fitted curve, though single readings scatter. Some salts or complexes appear as unconnected parts, following the source record.
# Target: N-terminal Xaa-Pro-Lys N-methyltransferase 1 (Homo sapiens) (UniProt Q9BV86)
# Assay: Primary qHTS for Inhibitors of N-terminal methyltransferase 1 (NTMT1): MTaseGlo Assay; also: nearly all actives have a fitted effect of over 65% in size
# Details: NTMT1 MTase-Glo SAH luminescence, purified enzyme
# From the text: Assay Submitter (PI): Rong Huang Ph.D.
# Purdue University, West Lafayette, IN 47907
# The N-terminal methytransferase 1 is the first methyltransferase that methylates protein alpha-N-amines and plays an important role in regulating cell mitosis, chromatin interactions and DNA repair. It is observed to be over-expressed in various cancer patient tissues like malignant melanoma and colorectal cancer tissues. Knockdown of NTMT1 in cancer cells causes cell mitotic defects and enhances sensitivity to DNA damaging chemotherapeutics. […] These critical cellular processes in which NTMT1 is implicated, coupled with emerging links to cellular dysfunction, strengthen the inference that NTMT1 is a compelling novel anticancer target. […] To address this unmet need, a panel of assay is created and established to enable quantitative high-throughput screening (qHTS) for novel, potent, and selective small molecule NTMT1 inhibitors. […]
# MTaseGlo Assay is a luminescence screen that measure the activity of methyltransferases based on the reaction product S-adenosyl homocysteine (SAH). […]
# 8; Reagent; 5 uL; Dispense 5 uL of 1x MTase-Glo Detection Solution (R) to allow for ADP to be converted to ATP which was then detected with a luciferase reaction. […]
# 11; Detection; Luminescence; Plates were read on ViewLux detector (PerkinElmer). […]
# Potency is read from the fitted curve at half-maximal effect.
row,SMILES,Potency
1,C/C1=C2/N=C(C(CC(N)=O)C2(C)CCC(=O)NCC(C)OP(=O)([O-])OC2C(CO)OC(n3cnc4cc(C)c(C)cc43)C2O)C2(C)N=C(/C(C)=C3N=C(/C=C4N=C1C(CCC(N)=O)C\4(C)C)C(CCC(N)=O)C/3(C)CC(N)=O)C(CCC(N)=O)C2(C)CC(N)=O.[C-]#N.[Co] (stereo unspecified),inconclusive: 39.8 µM
